The values below come from PMC4677347.

This assay deals with human proteasome α7 subunit (human) (UniProt P25788). Kind of assay: crystal structure; human α7 alone, 10 mg/mL in 50 mM Tris-HCl pH 7.4, 150 mM NaCl; crystals in 24% PEG400, 100 mM Tris-HCl pH 7.5, 0.2 M MgCl2, 20 °C; one tetradecamer per asymmetric unit; both purified.

No constants are given. Whether binding was seen depends on the method and setting. Some entries that bind do so weakly or less than the wild type.

For the substance “human proteasome α7 subunit (from UniProt P25788 1-255)”, the binding result is “binds”.
